Test results taken from patent US10265403B2, “Cyclic peptide” (priority 2013, dated 2019).
Not every detail of the peptide structures is certain; ends, links or a residue may be inferred.

Test system: E. coli
Test: Bacterial adhesion / biofilm formation on coated substrates (Live/Dead stain, PrestoBlue)
Assay type: cell-based
Description: Bacterial inocula (E. coli and B. subtilis) were prepared in Mueller Hinton broth at A600 of 0.6, then diluted to 1:100 in the pre-warmed medium, and 50 μL of this dilution was added to each well of the coated Nunc LabTek chambered cover glass slides. Formed biofilms were analysed after 16-hour incubations using a Live/Dead BacLight bacterial viability stain kit (Molecular Probes, UK), and were visualised by a confocal laser scanning microscope (CLSM) (FV-1000, Olympus). Bacterial viability was quantitatively probed by using PrestoBlue® reagent, as used for the cell viability and proliferation assay. E. coli was seeded at the same density as above in sterile bare and coated 96-well plates. After 16 hours incubation at 37° C. (or 30° C. for B. subtilis), the biofilm formed on each substrate was carefully washed with 10 mM Tris-HCl buffer, pH 7, to remove bacteria remaining in suspension. Two hundred microliters of PrestoBlue® reagent diluted in Mueller Hinton broth were added to each well and incubated for 30 minutes at 37° C. The fluorescence of each well was measured using a microplate reader with 544 nm excitation and 590 nm emission filters.
FIG. 13b and FIG. 13c are fluorescence micrographs and total viable cell counts respectively determined by PrestoBlue® of E. coli after 16-hour incubations on different substrates. […]

cyclo(AALEGGGEIAALEQEIAALEYKIAALKGGGKIAALKQKIAALKQEI) [SaNet]
viability of E. coli grown on substrate (total viable cell count, PrestoBlue) (16-hour incubation, coated substrate): significantly lower in comparison to fibronectin and collagen (p<0.001) and to D2 (p<0.01)
resistance against bacterial adhesion / biofilm formation (16-hour incubations, E. coli and B. subtilis (FIGS. 12b, 13b, 13c, 14)): strongly resistant against bacterial adhesion
